Experimental findings from article PMC12370185 are described below.

The list shows a part of the results. For some of these results: At the low end of the ranking the order means little.

Holding throughout (details): 10 mM Tris-Cl pH 7.5, 50 mM NaCl, 1 mM DTT, 0.25 mg/ml BSA, 2 mM MgCl2, 0.025% Nonidet P-40, 5% glycerol; 28 nM nucleosome library; 10 min on ice then 30 min …; high values mean tight binding; double strand, one strand shown
The subject of test [1] is KLF4 + histone octamer. Kind of test: EMSA with sequencing. On the technique in general: In EMSA bound probe runs differently from free probe, usually more slowly.
Test [2] concerns SOX2 + histone octamer. Kind of test: EMSA with sequencing.
The subject of test [3] is OCT4 + histone octamer. The experiment in a line: Pioneer-seq (competitive nucleosome EMSA with sequencing).
For test [4], the system named is c-MYC + MAX + histone octamer. The test is described as above.
Test [5] deals with c-MYC + MAX + histone octamer. Kind of test: EMSA with sequencing.
In test [6] the test system is SOX2 + histone octamer. Kind of test: Pioneer-seq (competitive nucleosome EMSA with sequencing).

On to “GATGGACCCTATACGCGGCAAAATATATATATATATAGTGGGACTGGGGAATCACAGAACCTTGCCTCAGCCCTGCCACCTTGCTGCCCATGAGGCTTTCAGGGAGGCTGTGGGAAGGGAGGGGGACAATGTCAAAGGCACATGGAAGCTCCCCTTTTATTATTAGCTGGGTGTGTGCCCAGCTCCTCCCAAACAGAACAGGGCTGGGACTGCCAGTCGGATAGTGTTCC”, for which the binding signal (log2 relative supershift) in test [1] was 1.8; in test [2] it was 0.503; in test [3] it was -0.413; in test [4], -0.126.

As to “GATGGACCCTATACGCGGCGAGTGACTTAAGAATGTCAGAGAATAGCAAGGGAGTGGCAGAAACCCTGTGAAGCACAGGCTAAGTATGGCCATATACAGAAGGGTGGAGTCATTGTTGTGCTATTCCCTTCCCCAATGCCTAAGTCACAGCTGTGCCCCACCATTCATGGGCCCTTGTTGCTGCTGTACCCAGCCTCACAAAGTCTGGTCTGCCAGTCGGATAGTGTTCC”, the binding signal (log2 relative supershift) in test [1] is 2.09; in test [2], 0.631; in test [3], -0.536; in test [4] it was -0.0027.

On to “GATGGACCCTATACGCGGCATAAGAAAGACAGGACAGCCCTCCAAACCAGGACGTCATGGAGAGGTCAGCCCACCCAAAGAAGATGCAGCACATGCAGGGTGTGGAGAGGGAAGTTCACGGGTGACGGGAGACACTGCCCTACGCCGCTAAATCCCTGCAGCCTCCTCCCCCTCATCCCTGTAAAAGTGAGTCAGAAGAGCTCACTTGTCTGCCAGTCGGATAGTGTTCC”, for which the binding signal (log2 relative supershift) in test [1] is 1.66; in test [2], 0.436; in test [3], -0.471; in test [4] it was -0.57.

Consider “GATGGACCCTATACGCGGCCTTCTGGCATGGACTTTGCCCCAGAGGGACACACCTAGCTTCTTGCGGGAGTGGGCAAGGAGGAGCACAGTTGGAACTACAGGGAGGGTGGTGGGGCTTGGCCCCCATGCAGTAGGCACATGGCAGGTGTTCCCTAAGGAGGAAACCTGGCCCTCCTCAGTCTTTCCTGTGAGACTGAGTAGGCAGAGTGGTGCCAGTCGGATAGTGTTCC”, for which the binding signal (log2 relative supershift) in test [1] is 2.21; in test [5], 0.362; in test [3], -0.16; in test [6], -0.602.

As to “GATGGACCCTATACGCGGCCCGCCCCAGCAGGCCCATTGCATCAGCTGCAGGCCGGGGGTTGGGGGGTGTCCCAGCCCTCAGCTTGCCCACTCCCTCCTGCCCAGCCCTGCCCTGGCTTTCCTGCTCTGCTCCCACCCACAGCTCCCTGACATTGTCACCTACCTCCTGAGCTGTCACCACAGGGCGCACGGGACTCCGCTGCCCCAGGTTGCCAGTCGGATAGTGTTCC”, the binding signal (log2 relative supershift) was 1.51 in test [1], 1.05 in test [5], -0.819 in test [3] and -1.78 in test [6].

For “GATGGACCCTATACGCGGCTGGGGTCTGGATGCCTGGTGTGGCCTCATGCAGACTCTCTGGGCAGGTACCACAGTATGACGCGACAGCTGCTCCGCAAGGCTGACGGGGTGGTGCTCATGTACGACATCACCTCCCAGGAGAGCTTTGCCCACGTGCGCTACTGGCTAGACTGTCTCCAGGTGAGCAGATGGCTGCTGGGGTTGGCCCCATGCCAGTCGGATAGTGTTCC”, the binding signal (log2 relative supershift) was 2.14 in test [1], 1.11 in test [5], -0.0218 in test [3] and -0.434 in test [6].

Take “GATGGACCCTATACGCGGCGCTGGTGTATGCTGGGAGCTATGCAGGCGTAGGGTGTGTCCTGGGCCAGAGGACACAGCACATGCTTAGGCTTGGGAGAAAGGACACTCGCCTGTGATGGGAGAGGCACTCATATTTGGGTCTGTGGTCTGGGCTGTGTGGGTGGGACACAGGGTGTGGACCTGGGTGGATCTTAAGGAGGGTGGATGGCATGCCAGTCGGATAGTGTTCC”: the binding signal (log2 relative supershift) was 2.02 in test [1], 0.859 in test [5], -0.612 in test [3] and -0.535 in test [6].

“GATGGACCCTATACGCGGCTGTGTGACTCAGCAGAGACAGCCATAATCTCCCTGGGACTATCACTCCATTGGACTGGGAACCACACCACCATCCCCCACAGCAGCTGCAGCAAGCCCCGCCCAAGATGAGGCTGAGCTCAGACAGGCCTATCCCTGCCCCAACCTGCTGGTCTTTCTCTATCCACCCTGGTAGCCAAAGGAAAAGGTCATTGCCAGTCGGATAGTGTTCC”: the binding signal (log2 relative supershift) in test [1] was 1.68; in test [5] it was 0.228; in test [3] it was -0.719; in test [6] it was -0.0151.

Consider “GATGGACCCTATACGCGGCGTAGGCAAAGAGGAAGCCCAAGATAGGGGAAGGCCAGGGTGTTGGTTCCTCAGTTTGTTGAAATCAGAGTCATGAAGCAAGACAAGCCAGGGCTTGCTCAGCATTTCTCCTTCCTGGCATGGGTTCACCTCAGCCCCAATTCAGTGGCAGCTCTGTTGGTTCAGAGGGGTGAGGTATCCAAGAGGAGGAAGTGCCAGTCGGATAGTGTTCC”, for which the binding signal (log2 relative supershift) in test [1] is 2.41; in test [5] it was 0.015; in test [3], -0.528; in test [6], -0.0783.

On to “GATGGACCCTATACGCGGCAACACAAACATCCAGTCCATCGCACTGTTCTTCAAACATGCCATGGTGCTCCCCACTCCTGGCCCTTGCACGTGCTCTTCCTTCCACTTAGGATGCCATCTCCGTGCTCCACCCACCTCCTGTGAGTCAGCCTAACACCCTGCTCCTTCAATGGCCAGCCTAAGTATCTCCACCTCTAGGATGCCTCCCTGTGCCAGTCGGATAGTGTTCC”, for which the binding signal (log2 relative supershift) in test [1] was 1.2; in test [5], 0.101; in test [3], -0.738; in test [6], -0.0202.
